Test results published in the supplement of paper PMC5949888.
Most values lie at the floor of the assay. Slopes are relative: functional sequences can read slightly below zero.

What follows are substances tested on Saccharomyces cerevisiae PS128 hsf1 delta, HSF1(1-493) fusion (assay: growth estimate (transactivation domain function in HSF1 fusion, heat-shock survival) (a.u. (slope of normalised read count over time)); higher = stronger growth at 37°C, i.e. more transactivation activity). Settings: library: random library.

| Substance | growth estimate |
| --- | --- |
| TRVTYAALLTQEARAALTLA | < -0.25 |
| TRVWRRFKRLGGAFRVYKVF | -0.246 |
| TRYALLSPQKRFRSVR | < -0.25 |
| TRYDLFEDL | 0.0285 |
| TRYFYAAVPQHLTCF | < -0.25 |
| TRYVRK | -0.231 |
| TSCFNICLRAIL | < -0.25 |
| TSCHFFIVPFLMGRETRRSI | < -0.25 |
| TSCI | < -0.25 |
| TSCRVYWHKA | < -0.25 |
| TSDYIPNSP | < -0.25 |
| TSERMVSTSD | < -0.25 |
| TSFA | < -0.25 |
| TSFAMLRGARSITSQSIF | -0.0984 |
| TSFEILGTAYTLKLKGETRP | -0.245 |
| TSFEMTL | < -0.25 |
| TSFHILREPATLRSPALFAS | < -0.25 |
| TSFLDA | < -0.25 |
| TSFTLGHMTGQHASISLGAT | < -0.25 |
| TSGGSGGARHNPAVRLWSPG | < -0.25 |
| TSGICAREPRAL | < -0.25 |
| TSGLGTCINKVPNGAFLPAC | < -0.25 |
| TSGRLVHYRAHCHR | < -0.25 |
| TSGVSAGAENRKLLNDWDFR | < -0.25 |
| TSHHGDVSAQARIPMETLFH | -0.162 |

Some values from above:
TRYVRK – growth estimate: -0.231
TSGRLVHYRAHCHR – growth estimate: < -0.25
TRYDLFEDL – growth estimate: 0.0285
TSFEILGTAYTLKLKGETRP – growth estimate: -0.245

(cont.)

| Substance | growth estimate |
| --- | --- |
| TSHKPPQDDDAVQKSQD | < -0.25 |
| TSHLKSMQSLSLGRVHKHG | < -0.25 |
| TSIKEYGRDFMVHSVLAGRT | < -0.25 |
| TSIRRHHPP | < -0.25 |
| TSL | < -0.25 |
| TSLAGNRWHGGGLMRTVLCL | < -0.25 |
| TSLAVRKWQNIRARPGRLRI | < -0.25 |
| TSLEGSTGGRVIIGTK | < -0.25 |
| TSLV | < -0.25 |
| TSLYDFSMLLLSPPIYGNEC | < -0.25 |
| TSNGAMRLFESPLTCLVARL | < -0.25 |
| TSNIAHFYHSLIRRSN | < -0.25 |
| TSNRCARGVTPLVPRHCIQR | < -0.25 |
| TSQFSFLPSSRG | < -0.25 |
| TSQKISDGTRLRSQNIRTPF | < -0.25 |
| TSQPLGAWNEQQVLDTSRAP | < -0.25 |
| TSQVRGGSFLVRRVRHWR | < -0.25 |
| TSRDSDWCILGFSIFVHEML | < -0.25 |
| TSRFLVV | < -0.25 |
| TSRNGWAGFRVRPYWAGHLG | < -0.25 |
| TSRPCTL | < -0.25 |
| TSRQRGPGGLYGRLKSVHQR | < -0.25 |
| TSRRILVPRLCQGRNGMAKG | < -0.25 |
| TSRRSSPQ | < -0.25 |
| TSRVSDALLTSTEFGGLLGG | < -0.25 |

Looked up one by one from the entries so far (three):

| Substance | growth estimate |
| --- | --- |
| TSNGAMRLFESPLTCLVARL | < -0.25 |
| TSLAVRKWQNIRARPGRLRI | < -0.25 |
| TSRRILVPRLCQGRNGMAKG | < -0.25 |

Continuation.

| Substance | growth estimate |
| --- | --- |
| TSSACSHGLYAIGIHEDWVY | < -0.25 |
| TSSL | < -0.25 |
| TSSLARVGRLEILS | < -0.25 |
| TSSNVSI | -0.246 |
| TSSRAIKKIIRPWDNIPHRG | < -0.25 |
| TSSTPFRDSGTRLPPLTVCI | < -0.25 |
| TSVCCRVTSASWANYSLAYD | -0.25 |
| TSVGRILSLRTALSYPSRAK | < -0.25 |
| TSVKSCLVLCKIAHKIYRFG | < -0.25 |
| TSVTILGLIIDRCEAFRAPA | < -0.25 |
| TSVVG | < -0.25 |
| TSYGAYIQGYGNGGPS | < -0.25 |
| TTAFYLGVAENANRWSGRSL | < -0.25 |
| TTAVKAVRP | < -0.25 |
| TTCGSFSRTPSQFGGLRSMG | < -0.25 |
| TTCQHLLSSG | < -0.25 |
| TTCSATTCRGECWSRNGTSF | < -0.25 |
| TTDDIGDKLPLRE | < -0.25 |
| TTDL | < -0.25 |
| TTDPIIATPNRPAPGEMHAF | < -0.25 |
| TTFRLQQGERITCAVRIKPL | < -0.25 |
| TTGG | < -0.25 |
| TTGI | < -0.25 |
| TTGIADALPYPDVGGSSCGA | < -0.25 |
| TTGNGPMKGLSRSWPTDPAT | < -0.25 |

| Substance | growth estimate |
| --- | --- |
| TTGRC | < -0.25 |
| TTGSLYSREFQQSWKDRAAQ | < -0.25 |
| TTGVLFTLTMGKGPPLAGHP | < -0.25 |
| TTKGHPRHR | < -0.25 |
| TTLEGSAAPCV | < -0.25 |
| TTLLANKNRCPHSKTSDSGC | < -0.25 |
| TTN | < -0.25 |
| TTNLVR | < -0.25 |
| TTPGIVAIPLPQFYGARCHR | < -0.25 |
| TTR | < -0.25 |
| TTRA | 0.066 |
| TTRLFVKFKE | < -0.25 |
| TTRLMGRGVIDGPDGCLQQL | < -0.25 |
| TTRMKDRQMRPLGERRRSNG | < -0.25 |
| TTRPRECSSDWVPVHGPAAA | < -0.25 |
| TTSDTALEEGLMITPFLLPL | < -0.25 |
| TTSVSLTCVWAQLSTER | < -0.25 |
| TTTEW | < -0.25 |
| TTVDEQPRIKSTCGNCLCWT | 0.548 |
| TTVSVWEIPFAMVSKEEEAL | < -0.25 |
| TTWC | < -0.25 |
| TTWDSPLCQKP | < -0.25 |
| TTWQL | < -0.25 |
| TTWYTDLYASSLKAIQIIPS | -0.214 |
